PubChem BioAssay AID2685 (National Center for Advancing Translational Sciences (NCATS), 2010)
Some of the results follow. These are further read-outs of the screen, such as a control signal, another cell line or another target. No call is given for them. Compounds called inactive in the main read-out are mostly missing here. The note in brackets gives the kind of curve behind each potency; many fits are weak.

Assay: qHTS Assay for Lipid Storage Modulators in Drosophila S3 Cells;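 for cell number change: cells counted by Cell Tracker Red CMTPX staining in the red channel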
Conditions: BODIPY lipid droplet fluorescence, 18-24 h; for cell number change: measured here: cell count max response, cells fed with added oleic acid
Procedure, shortened: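 Laser-scanning cytometry quantifies lipid droplet accumulation (500–530 nm total intensity; droplet/cell object ratio) in oleic acid-fed (400 uM added) Drosophila S3 cells treated with a concentration series. 20 uM Triacsin C defined 100% inhibition.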

[1] = measured here: lipid fluorescence (Fed channel) AC50, cells fed with added oleic acid
[2] = measured here: cell number channel AC50, cells fed with added oleic acid

Row | SMILES | cell number change | AC50 [1] | AC50 [2]
1 | COc1cc(/C=C2\C(=N)N3N=C(S(=O)(=O)CC(C)C)SC3=NC2=O)ccc1OC(=O)c1ccco1 | -22.6% | 18.4 µM [falling, single point] | –
2 | CCOc1c(C)cnc2c1c(=O)n(Cc1ccccc1Cl)c(=O)n2C | 18.7% | – | –
3 | Cc1cccc(C)c1OCCN1CCOCC1 | 22.3% | – | –
4 | Cc1nc2sccn2c1-c1csc(NCc2ccccc2)n1 | – | 0.651 µM [rising, single point] | –
5 | C/C(=N\OCC(=O)N/N=C/c1ccccc1)c1cccs1 | 13.9% | – | –
6 | N#Cc1nc(-c2ccc(OCc3ccccc3)cc2)oc1NCCN1CCOCC1 | -3.68% | 5.8 µM [rising, partial curve, poor fit] | 0.164 µM [rising, partial curve, poor fit]
7 | CCN(CC)C(=O)CSc1nc2c(sc(=S)n2-c2ccccc2)c(=O)n1-c1ccccc1OC | 22.2% | – | –
8 | Cc1cc(C)c(S(=O)(=O)N2CCN(C(=O)c3ccc(-n4cncn4)c([N+](=O)[O-])c3)CC2)c(C)c1 | -30.9% | – | 8.2 µM [falling, partial curve, poor fit]
9 | CCCNC(=O)COC(=O)/C=C/c1ccc2c(c1)OCO2 | -5.6% | – | 0.092 µM [rising, partial curve, poor fit]
10 | CCn1c(COc2ccc(Cl)cc2)nnc1SCc1ccc(C#N)cc1 | – | 3.66 µM [rising, partial curve] | 5.17 µM [rising, partial curve, poor fit]
11 | O=C(CSc1nnnn1-c1ccccc1)CSc1nnnn1-c1ccccc1 | 124% | 29.1 µM [rising, single point] | 18.4 µM [rising, single point]
12 | O=c1cc(N2CCOCC2)[nH]c(=O)n1-c1ccc(Cl)cc1 | 10% | 7.31 µM [rising, partial curve] | –
13 | O=C(OCc1nc2ccccc2s1)c1cnccn1 | 2.14% | 29.1 µM [rising, single point] | –
14 | O=C(Nc1ccnn1C1CCN(CC(O)CO)CC1)C1CCCC1 (stereo not given) | -0.578% | – | –
15 | COc1ccc(S(=O)(=O)Nc2ccc3c(c2)COC3=O)cc1OC | -15.3% | – | 0.13 µM [falling, full curve, poor fit]
16 | CC(C)(C)C1CCc2c(sc(NC(=O)CSc3ncn[nH]3)c2C#N)C1 (stereo not given) | -61.9% | 20.6 µM [falling, single point] | 29.1 µM [falling, single point]
17 | Cc1ccc2nc(SCC(=O)NCc3ccc(F)cc3)[nH]c2c1 | -1.8% | 9.2 µM [rising, partial curve] | –
18 | CC(Sc1nc2ccccc2c(=O)n1C)C(=O)N(C)C1CCCCC1 (stereo not given) | -30.2% | 29.1 µM [falling, single point] | 16.4 µM [falling, single point]
19 | O=C(NC1CC2CCCC(C1)N2Cc1ccco1)NC12CC3CC(CC(C3)C1)C2 (stereo not given) | 3.6% | – | –
20 | Cc1ccc(-c2[nH]nc(N)c2N=Nc2cccc(Cl)c2C)cc1 | -61.4% | – | 16.4 µM [falling, partial curve, poor fit]

Row | SMILES | cell number change | AC50 [1] | AC50 [2]
21 | Cc1cc(C)cc(-n2ncc3c2CCCC3NC(=O)CN2CCCC2=O)c1 (stereo not given) | -21.8% | 29.1 µM [falling, single point] | –
22 | Cc1ccc(S(=O)(=O)c2nnn3c2nc(N2CCCCC2)c2ccccc23)cc1 | 5.94% | 5.17 µM [rising, full curve] | 0.461 µM [rising, partial curve, poor fit]
23 | Cc1nn(Cc2c(F)c(F)c(F)c(F)c2F)c(C)c1NC(=O)c1cccc(COc2ccc(Cl)cc2)c1 | 18% | 7.31 µM [rising, single point] | –
24 | CC(=N\NC(=O)c1cc(Br)ccc1O)/C(=N/O)C(=O)Nc1ccccc1 | -17.7% | 6.51 µM [rising, single point] | –
25 | CCOC(=O)NC(=O)COC(=O)CCCc1nc2ccccc2s1 | -15.9% | 0.00461 µM [falling, full curve, poor fit] | –
26 | Cc1cc(C)cc(-n2c(C)cc(/C=C3\C(=N)N4N=C(CC(C)C)SC4=NC3=O)c2C)c1 | -24.1% | 29.1 µM [falling, partial curve] | –
27 | CCOc1ccccc1CN1C(=O)c2ccccc2C1C(=O)NC(C)CC (stereo not given) | -11.2% | 20.6 µM [rising, single point] | –
28 | COc1ccc(Cl)cc1NC(=O)CN(C)CC(=O)N1CC(=O)Nc2ccccc21 | – | 0.259 µM [falling, full curve] | –
29 | O=C(O)CCC(C(=O)O)n1c(O)c(C2=c3ccccc3=NC2=O)sc1=S (stereo not given) | -8.79% | 0.58 µM [falling, full curve] | –
30 | COC1CCN(C(=O)c2cc(COc3ccc(-n4cncn4)cc3)on2)CC1 | 79.9% | 20.6 µM [rising, partial curve] | 14.6 µM [rising, partial curve]
31 | CCNC(=S)NC1CC2CCCC(C1)N2Cc1ccc(C)cc1 (stereo not given) | 2.89% | – | –
32 | O=C(NCCN1CCCC1)c1ccc(Cl)cc1 | -3.37% | 1.64 µM [falling, partial curve] | –
33 | Cc1cccc(NC(=O)CSCC(=O)Nc2ccccc2N2CCCCC2)c1 | 12.9% | 0.411 µM [rising, full curve] | 0.326 µM [rising, full curve, poor fit]
34 | O=C(CN(C(=O)c1csnn1)c1ccccc1F)NC1CCCCC1 | 16% | 0.00517 µM [falling, full curve, poor fit] | –
35 | CCOC(=O)c1ccc(NC(=S)N2CCSC2c2ccc(OC)cc2)cc1 (stereo not given) | 16.7% | 23.1 µM [falling, partial curve, poor fit] | –
36 | COC(=O)c1sccc1NC(=O)Cn1cnc2c1c(=O)n(C)c(=O)n2C | -9.91% | 29.1 µM [falling, single point] | –
37 | COc1cc(-c2ccccc2)[nH]c(=S)n1 | 4.57% | 29.1 µM [rising, single point] | –
38 | COc1ccc(CN2C(=O)C(=O)N(CC(N)=O)C2=O)cc1 | 54% | 3.26 µM [rising, full curve] | 4.11 µM [rising, full curve, poor fit]
39 | Cc1ccc2cc(/C=N/Nc3ccc(C(=O)O)cc3)c(Cl)nc2c1 | 53.8% | 0.0651 µM [rising, full curve, poor fit] | 16.4 µM [rising, partial curve, poor fit]
40 | CCC(=O)Nc1nc2ccc3nc(C)sc3c2s1 | – | 0.58 µM [rising, full curve] | –

Row | SMILES | cell number change | AC50 [1] | AC50 [2]
41 | CCNC(=O)COC(=O)/C=C/c1cccc(F)c1 | 8.88% | 6.51 µM [rising, partial curve] | 6.51 µM [rising, partial curve, poor fit]
42 | O=C(O)c1csc(-c2cccs2)n1 | -35.2% | 7.31 µM [falling, partial curve] | 0.00461 µM [falling, full curve, poor fit]
43 | Cc1nc2ccccc2c(=O)n1NC(=O)C1CC1C (stereo not given) | 15.1% | – | –
44 | Cc1cc(C)nc(Nc2ccccc2Br)n1 | -36.3% | 32.6 µM [falling, single point] | 18.4 µM [falling, partial curve]
45 | CCOC(=O)C1CCCN(C(=O)COC(=O)c2cc(=O)c3ccccc3o2)C1 (stereo not given) | -23.2% | 0.13 µM [falling, full curve] | 0.13 µM [falling, full curve]
46 | COc1cccc(CN2CC(C(=O)N(C)Cc3ccnc4ccccc34)CCC2=O)c1 (stereo not given) | -10.7% | 4.61 µM [rising, full curve, poor fit] | –
47 | Cc1ccc(O)c(-c2cc(-c3ccccc3C)[nH]n2)c1 | -79.2% | 29.1 µM [falling, single point] | 18.4 µM [falling, partial curve]
48 | Cc1cc(Cl)ccc1NC(=O)CN1C(=O)CSc2ccc(S(=O)(=O)N3CCOCC3)cc21 | 38.7% | 13 µM [rising, partial curve] | 0.013 µM [rising, full curve, poor fit]
49 | N=c1n(Cc2ccccc2)c2ccccc2n1CC(O)c1ccco1 (stereo not given) | – | 0.058 µM [falling, full curve, poor fit] | –
50 | CNC(=O)c1ccc(NC(=O)Nc2ccccc2)cc1 | – | 18.4 µM [rising, single point] | –
51 | CCC(C)NC(=O)CSc1nc(-c2cccs2)cc(C(F)(F)F)n1 (stereo not given) | – | 0.326 µM [rising, full curve] | 0.13 µM [rising, full curve, poor fit]
52 | COc1cccc2sc(NNC(=O)C3COc4ccccc4O3)nc12 (stereo not given) | 1.11% | – | 0.651 µM [falling, single point]
53 | Cc1nnc(Sc2cc(NCCO)c([N+](=O)[O-])c3nonc23)s1 | – | 3.26 µM [falling, single point] | –
54 | O=C1CC(=O)N(Cc2ccco2)C(=O)N1 | -25.6% | 4.61 µM [falling, full curve] | –
55 | O=C(Cc1ccc(Cl)cc1)NNC(=O)C1CC=CCC1C(=O)O (stereo not given) | – | 29.1 µM [falling, single point] | –
56 | CC(=O)N1CCN(c2cc(N3CCc4ccccc4C3)c(F)cc2[N+](=O)[O-])CC1 | 69.9% | – | –
57 | COc1cc(/C(=C/c2ccccc2)c2ccccc2)c2c(c1)oc1ccccc12 | 40.8% | 29.1 µM [rising, single point] | 4.61 µM [rising, partial curve, poor fit]
58 | C=CCn1c(COc2ccc(Cl)cc2)nnc1SCC(=O)c1c(N)n(C)c(=O)n(C)c1=O | – | – | 0.164 µM [rising, full curve, poor fit]

Among those listed so far, these have a COOH group.
Row | SMILES | cell number change | AC50 [1] | AC50 [2]
29 | O=C(O)CCC(C(=O)O)n1c(O)c(C2=c3ccccc3=NC2=O)sc1=S (stereo not given) | -8.79% | 0.58 µM [falling, full curve] | –
39 | Cc1ccc2cc(/C=N/Nc3ccc(C(=O)O)cc3)c(Cl)nc2c1 | 53.8% | 0.0651 µM [rising, full curve, poor fit] | 16.4 µM [rising, partial curve, poor fit]
42 | O=C(O)c1csc(-c2cccs2)n1 | -35.2% | 7.31 µM [falling, partial curve] | 0.00461 µM [falling, full curve, poor fit]
55 | O=C(Cc1ccc(Cl)cc1)NNC(=O)C1CC=CCC1C(=O)O (stereo not given) | – | 29.1 µM [falling, single point] | –
